From the supplement of paper PMC7661543
The effect of the compound repeats well; differences between the knockouts mostly do not.

Tested on: SKBR3
Assay: relative cell number vs DMSO control (72 h) (% of DMSO); higher = less growth inhibition (more cells)
Experimental: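 QMAP-Seq: a pool of 5 breast cancer cell lines (ZR-75-1, SKBR3, HCC-38, MDA-MB-231, BT-20), each carrying 12 doxycycline-inducible Cas9 sgRNA perturbations (11 knockouts plus non-targeting sgNT), was treated with compounds for 72 h at four 10-fold doses (10 nM-10 uM or 1 nM-1 uM range). Barcodes were amplified and sequenced, and cell number was interpolated from 293T spike-in standard curves. The result is expressed as % of the median of DMSO wells. Two biological replicates.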

CC(C)(C)OC(=O)CN(Cc1ccc(Cl)cc1)Cc1ccc([N+](=O)[O-])s1 [GSK4112]
Settings | relative cell number
sgRNA knockout: sgATF3, 10 nM | 96.3
sgRNA knockout: sgATF3, 100 nM | 96.7
sgRNA knockout: sgATF3, 1000 nM | 101
sgRNA knockout: sgATF3, 10000 nM | 86.4
sgRNA knockout: sgATF4, 10 nM | 82.2
sgRNA knockout: sgATF4, 100 nM | 94.4
sgRNA knockout: sgATF4, 1000 nM | 89.6
sgRNA knockout: sgATF4, 10000 nM | 102
sgRNA knockout: sgATF6, 10 nM | 88.7
sgRNA knockout: sgATF6, 100 nM | 94.1
sgRNA knockout: sgATF6, 1000 nM | 89.5
sgRNA knockout: sgATF6, 10000 nM | 101
sgRNA knockout: sgATG7, 10 nM | 74.5
sgRNA knockout: sgATG7, 100 nM | 92.1
sgRNA knockout: sgATG7, 1000 nM | 98.4
sgRNA knockout: sgATG7, 10000 nM | 102
sgRNA knockout: sgERN1, 10 nM | 98.3
sgRNA knockout: sgERN1, 100 nM | 109
sgRNA knockout: sgERN1, 1000 nM | 87.5
sgRNA knockout: sgERN1, 10000 nM | 97.9
sgRNA knockout: sgHSF1, 10 nM | 78.8
sgRNA knockout: sgHSF1, 100 nM | 102
sgRNA knockout: sgHSF1, 1000 nM | 116
sgRNA knockout: sgHSF1, 10000 nM | 101
sgRNA knockout: sgHSF2, 10 nM | 80.1
sgRNA knockout: sgHSF2, 100 nM | 96.42
sgRNA knockout: sgHSF2, 1000 nM | 74
sgRNA knockout: sgHSF2, 10000 nM | 104
sgRNA knockout: sgKEAP1, 10 nM | 92.7
sgRNA knockout: sgKEAP1, 100 nM | 89.1
sgRNA knockout: sgKEAP1, 1000 nM | 95
sgRNA knockout: sgKEAP1, 10000 nM | 91.1
sgRNA knockout: sgNFE2L2, 10 nM | 89
sgRNA knockout: sgNFE2L2, 100 nM | 99.4
sgRNA knockout: sgNFE2L2, 1000 nM | 88
sgRNA knockout: sgNFE2L2, 10000 nM | 98.8
sgRNA knockout: sgSLC35F2, 10 nM | 83.2
sgRNA knockout: sgSLC35F2, 100 nM | 116
sgRNA knockout: sgSLC35F2, 1000 nM | 92.5
sgRNA knockout: sgSLC35F2, 10000 nM | 103
sgRNA knockout: sgXBP1, 10 nM | 104
sgRNA knockout: sgXBP1, 100 nM | 94.1
sgRNA knockout: sgXBP1, 1000 nM | 129
sgRNA knockout: sgXBP1, 10000 nM | 115

COc1ccc(-c2ccc3c(N4CCOCC4)nc(N4C[C@@H](C)O[C@@H](C)C4)nc3n2)cc1CO
Settings | relative cell number
sgRNA knockout: sgATF3, 10 nM | 103
sgRNA knockout: sgATF3, 100 nM | 132
sgRNA knockout: sgATF3, 1000 nM | 93.9
sgRNA knockout: sgATF3, 10000 nM | 45.7
sgRNA knockout: sgATF4, 10 nM | 99.9
sgRNA knockout: sgATF4, 100 nM | 112
sgRNA knockout: sgATF4, 1000 nM | 74.6
sgRNA knockout: sgATF4, 10000 nM | 45.5
sgRNA knockout: sgATF6, 10 nM | 88.5
sgRNA knockout: sgATF6, 100 nM | 99.8
sgRNA knockout: sgATF6, 1000 nM | 77.6
sgRNA knockout: sgATF6, 10000 nM | 34.7
sgRNA knockout: sgATG7, 10 nM | 102
sgRNA knockout: sgATG7, 100 nM | 101
sgRNA knockout: sgATG7, 1000 nM | 70.6
sgRNA knockout: sgATG7, 10000 nM | 36.8
sgRNA knockout: sgERN1, 10 nM | 89.4
sgRNA knockout: sgERN1, 100 nM | 109
sgRNA knockout: sgERN1, 1000 nM | 69
sgRNA knockout: sgERN1, 10000 nM | 40.6
sgRNA knockout: sgHSF1, 10 nM | 96.6
sgRNA knockout: sgHSF1, 100 nM | 110
sgRNA knockout: sgHSF1, 1000 nM | 62.4
sgRNA knockout: sgHSF1, 10000 nM | 43.3
sgRNA knockout: sgHSF2, 10 nM | 102
sgRNA knockout: sgHSF2, 100 nM | 110
sgRNA knockout: sgHSF2, 1000 nM | 82
sgRNA knockout: sgHSF2, 10000 nM | 45.3
sgRNA knockout: sgKEAP1, 10 nM | 84.9
sgRNA knockout: sgKEAP1, 100 nM | 96.8
sgRNA knockout: sgKEAP1, 1000 nM | 69.8
sgRNA knockout: sgKEAP1, 10000 nM | 41
sgRNA knockout: sgNFE2L2, 10 nM | 99.2
sgRNA knockout: sgNFE2L2, 100 nM | 117
sgRNA knockout: sgNFE2L2, 1000 nM | 65.6
sgRNA knockout: sgNFE2L2, 10000 nM | 45
sgRNA knockout: sgSLC35F2, 10 nM | 102
sgRNA knockout: sgSLC35F2, 100 nM | 112
sgRNA knockout: sgSLC35F2, 1000 nM | 74.3
sgRNA knockout: sgSLC35F2, 10000 nM | 41.4
sgRNA knockout: sgXBP1, 10 nM | 91.4
sgRNA knockout: sgXBP1, 100 nM | 128
sgRNA knockout: sgXBP1, 1000 nM | 70.4
sgRNA knockout: sgXBP1, 10000 nM | 39.9

CC(C)C[C@H](NC(=O)[C@H](Cc1ccccc1)NC(=O)c1cnccn1)B(O)O [Bortezomib]
Settings | relative cell number
sgRNA knockout: sgATF3, 1 nM | 78.9
sgRNA knockout: sgATF3, 10 nM | 53.1
sgRNA knockout: sgATF3, 100 nM | 12.7
sgRNA knockout: sgATF3, 1000 nM | 9.87
sgRNA knockout: sgATF4, 1 nM | 90.8
sgRNA knockout: sgATF4, 10 nM | 42.4
sgRNA knockout: sgATF4, 100 nM | 9.3
sgRNA knockout: sgATF4, 1000 nM | 8.36
sgRNA knockout: sgATF6, 1 nM | 92.5
sgRNA knockout: sgATF6, 10 nM | 40.3
sgRNA knockout: sgATF6, 100 nM | 12.1
sgRNA knockout: sgATF6, 1000 nM | 9.18
sgRNA knockout: sgATG7, 1 nM | 98.5
sgRNA knockout: sgATG7, 10 nM | 47.9
sgRNA knockout: sgATG7, 100 nM | 6.75
sgRNA knockout: sgATG7, 1000 nM | 13.3
sgRNA knockout: sgERN1, 1 nM | 100
sgRNA knockout: sgERN1, 10 nM | 38.5
sgRNA knockout: sgERN1, 100 nM | 10.3
sgRNA knockout: sgERN1, 1000 nM | 9.11
sgRNA knockout: sgHSF1, 1 nM | 91.8
sgRNA knockout: sgHSF1, 10 nM | 46.1
sgRNA knockout: sgHSF1, 100 nM | 10
sgRNA knockout: sgHSF1, 1000 nM | 9.32
sgRNA knockout: sgHSF2, 1 nM | 92.7
sgRNA knockout: sgHSF2, 10 nM | 53.9
sgRNA knockout: sgHSF2, 100 nM | 10.7
sgRNA knockout: sgHSF2, 1000 nM | 8.76
sgRNA knockout: sgKEAP1, 1 nM | 101
sgRNA knockout: sgKEAP1, 10 nM | 50.4
sgRNA knockout: sgKEAP1, 100 nM | 10.1
sgRNA knockout: sgKEAP1, 1000 nM | 10.2
sgRNA knockout: sgNFE2L2, 1 nM | 75.7
sgRNA knockout: sgNFE2L2, 10 nM | 50.4
sgRNA knockout: sgNFE2L2, 100 nM | 13.7
sgRNA knockout: sgNFE2L2, 1000 nM | 11.3
sgRNA knockout: sgSLC35F2, 1 nM | 90.5
sgRNA knockout: sgSLC35F2, 10 nM | 44
sgRNA knockout: sgSLC35F2, 100 nM | 8.71
sgRNA knockout: sgSLC35F2, 1000 nM | 7.84
sgRNA knockout: sgXBP1, 1 nM | 74.442
sgRNA knockout: sgXBP1, 10 nM | 44.5
sgRNA knockout: sgXBP1, 100 nM | 9.43
sgRNA knockout: sgXBP1, 1000 nM | 11.1
